For the experiment, the system named is A549 cells. Nature of the experiment: MTT cytotoxicity assay, lung cancer A549. Particulars: Homo sapiens, A549, read-out: IC50 ± SD, Lung cancer (A549). It counts as cell-based. In general terms: Tetrazolium dyes change colour on reduction, which living cells bring about.

The IC50 is the concentration that gives 50% inhibition. Turning to `COc1cccc2c1C(=O)c1c(O)c3c(c(O)c1C2=O)C[C@@](O)(C(=O)CO)C[C@@H]3O[C@H]1C[C@H](N)[C@H](O)[C@H](C)O1` [Doxorubicin], the half-maximal inhibitory concentration (IC50) amounted to 9.44 ± 0.64 µM.

The values above are taken from article PMC10448641 (ACS Omega, 2023).
